Source: article PMC4906400
Results are given in words; binding and its absence hold for the method and conditions named. For some of these results: In cells and extracts the contact can be indirect. Some entries that bind do so weakly or less than the wild type. Tags and fused reporters may be left off the sequences shown.

B1: His-PIF1 (protein, UniProt Q8GZM7 1-478)
chain: MHHFVPDFDTDDDYVNNHNSSLNHLPRKSITTMGEDDDLMELLWQNGQVVVQNQRLHTKKPSSSPPKLLPSMDPQQQPSSDQNLFIQEDEMTSWLHYPLRDDDFCSDLLFSAAPTATATATVSQVTAARPPVSSTNESRPPVRNFMNFSRLRGDFNNGRGGESGPLLSKAVVRESTQVSPSATPSAAASESGLTRRTDGTDSSAVAGGGAYNRKGKAVAMTAPAIEITGTSSSVVSKSEIEPEKTNVDDRKRKEREATTTDETESRSEETKQARVSTTSTKRSRAAEVHNLSERKRRDRINERMKALQELIPRCNKSDKASMLDEAIEYMKSLQLQIQMMSMGCGMMPMMYPGMQQYMPHMAMGMGMNQPIPPPSFMPFPNMLAAQRPLPTQTHMAGSGPQYPVHASDPSRVFVPNQQYDPTSGQPQYPAGYTDPYQQFRGLHPTQPPQFQNQATSYPSSSRVSSSKESEDHGNHTTG
B2: GST-PIF5 (protein, UniProt Q84LH8 1-444)
chain: MEQVFADWNFEDNFHMSTNKRSIRPEDELVELLWRDGQVVLQSQARREPSVQVQTHKQETLRKPNNIFLDNQETVQKPNYAALDDQETVSWIQYPPDDVIDPFESEFSSHFFSSIDHLGGPEKPRTIEETVKHEAQAMAPPKFRSSVITVGPSHCGSNQSTNIHQATTLPVSMSDRSKNVEERLDTSSGGSSGCSYGRNNKETVSGTSVTIDRKRKHVMDADQESVSQSDIGLTSTDDQTMGNKSSQRSGSTRRSRAAEVHNLSERRRRDRINERMKALQELIPHCSRTDKASILDEAIDYLKSLQMQLQVMWMGSGMAAAAAAAASPMMFPGVQSSPYINQMAMQSQMQLSQFPVMNRSAPQNHPGLVCQNPVQLQLQAQNQILSEQLARYMGGIPQMPPAGNQMQTVQQQPADMLGFGSPAGPQSQLSAPATTDSLHMGKIG
B3: YFP^C-PIF1 (protein, UniProt Q8GZM7 1-478)
chain: MHHFVPDFDTDDDYVNNHNSSLNHLPRKSITTMGEDDDLMELLWQNGQVVVQNQRLHTKKPSSSPPKLLPSMDPQQQPSSDQNLFIQEDEMTSWLHYPLRDDDFCSDLLFSAAPTATATATVSQVTAARPPVSSTNESRPPVRNFMNFSRLRGDFNNGRGGESGPLLSKAVVRESTQVSPSATPSAAASESGLTRRTDGTDSSAVAGGGAYNRKGKAVAMTAPAIEITGTSSSVVSKSEIEPEKTNVDDRKRKEREATTTDETESRSEETKQARVSTTSTKRSRAAEVHNLSERKRRDRINERMKALQELIPRCNKSDKASMLDEAIEYMKSLQLQIQMMSMGCGMMPMMYPGMQQYMPHMAMGMGMNQPIPPPSFMPFPNMLAAQRPLPTQTHMAGSGPQYPVHASDPSRVFVPNQQYDPTSGQPQYPAGYTDPYQQFRGLHPTQPPQFQNQATSYPSSSRVSSSKESEDHGNHTTG
B4: YFP^C-PIF5 (protein, UniProt Q84LH8 1-444)
chain: MEQVFADWNFEDNFHMSTNKRSIRPEDELVELLWRDGQVVLQSQARREPSVQVQTHKQETLRKPNNIFLDNQETVQKPNYAALDDQETVSWIQYPPDDVIDPFESEFSSHFFSSIDHLGGPEKPRTIEETVKHEAQAMAPPKFRSSVITVGPSHCGSNQSTNIHQATTLPVSMSDRSKNVEERLDTSSGGSSGCSYGRNNKETVSGTSVTIDRKRKHVMDADQESVSQSDIGLTSTDDQTMGNKSSQRSGSTRRSRAAEVHNLSERRRRDRINERMKALQELIPHCSRTDKASILDEAIDYLKSLQMQLQVMWMGSGMAAAAAAAASPMMFPGVQSSPYINQMAMQSQMQLSQFPVMNRSAPQNHPGLVCQNPVQLQLQAQNQILSEQLARYMGGIPQMPPAGNQMQTVQQQPADMLGFGSPAGPQSQLSAPATTDSLHMGKIG

Legend:
[1] = target: T1, MBP-RGA (REPRESSOR OF ga1-3 fused with maltose-binding protein) (Arabidopsis) (UniProt Q9SLH3); assay: pull-down; 2 ug MBP or MBP-RGA mixed with 2 ug His- or GST-tagged protein in 500 ul binding buffer (20 mM Tris-HCl pH 7.5, 150 mM NaCl, 0.1% Nonidet P-40), 4 °C, 2 h; captured on amylose agarose beads; immunoblots with anti-His, anti-GST, anti-MBP; both purified
T1 sequence: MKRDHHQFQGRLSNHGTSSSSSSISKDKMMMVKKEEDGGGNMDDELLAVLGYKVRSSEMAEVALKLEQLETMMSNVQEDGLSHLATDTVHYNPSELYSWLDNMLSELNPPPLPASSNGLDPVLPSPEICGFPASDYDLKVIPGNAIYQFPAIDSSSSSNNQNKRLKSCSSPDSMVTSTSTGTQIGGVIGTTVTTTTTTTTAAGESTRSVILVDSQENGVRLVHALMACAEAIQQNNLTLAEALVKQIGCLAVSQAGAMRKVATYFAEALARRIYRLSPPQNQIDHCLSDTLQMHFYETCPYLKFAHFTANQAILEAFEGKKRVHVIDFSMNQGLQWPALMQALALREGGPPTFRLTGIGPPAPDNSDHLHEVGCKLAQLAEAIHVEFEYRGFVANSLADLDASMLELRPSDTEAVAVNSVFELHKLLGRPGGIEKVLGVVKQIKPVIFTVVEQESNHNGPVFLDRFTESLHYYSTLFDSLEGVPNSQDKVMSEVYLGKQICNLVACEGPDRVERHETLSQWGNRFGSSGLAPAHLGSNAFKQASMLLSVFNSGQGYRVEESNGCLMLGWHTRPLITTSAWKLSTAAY

YFP^N-RGA (Arabidopsis) = target: T2, YFP^N-RGA (Arabidopsis) (UniProt Q9SLH3); assay: split reporter; BiFC: YFP^N-RGA with YFP^C-PIF plasmids, particle-mediated transformation of onion epidermal cells, YFP signal after 24 h by confocal microscopy
T2 sequence: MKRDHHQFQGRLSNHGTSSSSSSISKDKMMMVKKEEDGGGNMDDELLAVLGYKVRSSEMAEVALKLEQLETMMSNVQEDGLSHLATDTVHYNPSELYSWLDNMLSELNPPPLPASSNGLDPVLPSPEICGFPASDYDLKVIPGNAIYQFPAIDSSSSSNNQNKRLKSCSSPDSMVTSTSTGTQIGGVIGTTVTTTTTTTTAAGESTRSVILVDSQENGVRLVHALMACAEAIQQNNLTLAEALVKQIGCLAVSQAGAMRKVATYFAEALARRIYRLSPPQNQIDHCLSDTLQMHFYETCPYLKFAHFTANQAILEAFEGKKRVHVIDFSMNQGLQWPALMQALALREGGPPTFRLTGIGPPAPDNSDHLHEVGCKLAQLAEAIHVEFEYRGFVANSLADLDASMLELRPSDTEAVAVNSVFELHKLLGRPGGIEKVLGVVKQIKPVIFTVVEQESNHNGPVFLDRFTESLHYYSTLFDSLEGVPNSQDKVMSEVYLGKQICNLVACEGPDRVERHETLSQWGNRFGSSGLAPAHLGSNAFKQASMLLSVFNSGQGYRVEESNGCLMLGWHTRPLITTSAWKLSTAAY

Row | Binder | binding [1] | binding (YFP^N-RGA (Arabidopsis))
1 | B1 | binds | 
2 | B2 | binds | 
3 | B3 |  | binds
4 | B4 |  | binds
